Data published in paper PMC6077249, “Insights into Centromere DNA Bending Revealed by the Cryo-EM Structure of the Core Centromere Binding Factor 3 with Ndc10”.
No constants are given. Whether binding was seen depends on the method and setting. Some entries that bind do so weakly or less than the wild type.

Chains of the proteins cited; added tags and fusions are not shown. Lines headed by an entry give the natural chain unless they say otherwise; changes in a name come on top. Residues count along the entry.
UniProt P35203, residues 2-478: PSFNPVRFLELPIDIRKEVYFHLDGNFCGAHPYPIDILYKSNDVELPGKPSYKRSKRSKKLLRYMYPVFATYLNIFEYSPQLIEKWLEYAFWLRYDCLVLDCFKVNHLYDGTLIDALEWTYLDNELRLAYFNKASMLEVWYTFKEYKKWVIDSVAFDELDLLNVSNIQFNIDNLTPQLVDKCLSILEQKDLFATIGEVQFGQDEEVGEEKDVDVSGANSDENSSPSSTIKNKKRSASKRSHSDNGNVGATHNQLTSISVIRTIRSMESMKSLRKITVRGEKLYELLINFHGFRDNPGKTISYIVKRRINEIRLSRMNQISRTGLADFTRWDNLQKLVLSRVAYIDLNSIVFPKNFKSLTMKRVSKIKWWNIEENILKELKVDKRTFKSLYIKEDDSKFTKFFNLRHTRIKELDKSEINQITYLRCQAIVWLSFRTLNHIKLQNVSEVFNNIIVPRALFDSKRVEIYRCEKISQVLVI
UniProt P40969, residues 47-608: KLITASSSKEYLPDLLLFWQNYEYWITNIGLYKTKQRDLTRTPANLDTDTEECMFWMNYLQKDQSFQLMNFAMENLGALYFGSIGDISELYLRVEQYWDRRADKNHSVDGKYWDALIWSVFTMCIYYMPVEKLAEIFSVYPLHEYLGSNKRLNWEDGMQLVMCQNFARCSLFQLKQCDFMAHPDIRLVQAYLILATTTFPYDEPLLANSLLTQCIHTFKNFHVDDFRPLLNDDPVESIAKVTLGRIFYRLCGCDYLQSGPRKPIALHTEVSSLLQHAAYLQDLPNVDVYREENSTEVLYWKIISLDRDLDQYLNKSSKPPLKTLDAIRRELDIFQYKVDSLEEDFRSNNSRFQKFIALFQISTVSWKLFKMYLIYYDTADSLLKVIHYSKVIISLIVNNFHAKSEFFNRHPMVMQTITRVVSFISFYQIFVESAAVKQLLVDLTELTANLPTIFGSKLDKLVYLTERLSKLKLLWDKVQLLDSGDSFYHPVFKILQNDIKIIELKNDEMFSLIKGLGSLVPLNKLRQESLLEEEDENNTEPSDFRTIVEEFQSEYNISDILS
UniProt P52286, residues 2-194: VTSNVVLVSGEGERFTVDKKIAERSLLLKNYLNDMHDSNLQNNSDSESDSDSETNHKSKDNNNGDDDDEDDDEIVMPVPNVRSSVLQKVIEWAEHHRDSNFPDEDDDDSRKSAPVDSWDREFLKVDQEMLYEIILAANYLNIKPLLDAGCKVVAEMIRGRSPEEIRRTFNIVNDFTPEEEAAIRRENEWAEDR

Key:
Ctf13 (S. cerevisiae) = Ctf13 (S. cerevisiae) (UniProt P35203); test: cryo-EM structure; CBF3CCΔN co-expressed in S. cerevisiae and co-purified; 0.12 and 0.24 mg/ml on UltrAuFoil grids; 3.7 Å map; buffer 15 mM Tris pH 8.0, 200 mM NaCl, 2 mM DTT; both purified
[1] = biological target: Cep3ΔN (N-terminally truncated Cep3, residues 47–608, lacking the Zn2Cys6 domain) (S. cerevisiae) (UniProt P40969); test: as above

Row | binding (Ctf13 (S. cerevisiae)) | binding [1] | Substance
1 | binds | – | Skp1 (from UniProt P52286 2-194)
2 | – | binds | Ctf13 (from UniProt P35203 2-478)
